One compound from patent publication US12110283B2, “Carbonic anhydrase targeting agents and methods of using same” (VisEn Medical, Inc., priority 2011, dated 2024) can be followed below.

This data set concerns HeLa tumor tissue sections. Kind of data set: Distribution in tumor tissue by fluorescence microscopy. Type of data set: in vivo, mice. The settings on record: sections co-stained with anti CA IX antibody or pimonidazole; Hoechst 33342 for perfused tissue. Here is the method:
Tumor bearing mice injected with C5 were then injected intravenously with pimonidazole (80 mg/kg), a marker of hypoxic tissue, and Hoechst 33342 (25 mg/kg), which stains highly perfused tissue, one hour and five minutes before sacrifice, respectively (38). Tumors, kidneys and muscle tissues were collected and imaged by FRI. The tissues were then embedded, frozen in OCT (Optimal Cutting Temperature compound), and stored at −80° C. until they were sectioned for fluorescence microscopy and immunostaining. Sections of 8 μm thickness were prepared and air dried for 10 min. Sections were imaged for Hoechst (blue) in combination with C5 (red). After acquiring images, the sections were fixed in ice-cold acetone for 20 min and incubated in SuperBlock (37515, Thermo Scientific) for 30 min. The tissue sections were then stained with detection antibodies diluted with blocking solution for 1 hour; CA IX expression was detected with fluorescein-conjugated Anti-Human CA IX monoclonal antibody (FAB2188F, R&D System) diluted 1:10 and pimonidazole binding was detected by FITC-conjugated murine anti-pimonidazole monoclonal antibody (provided in the Hypoxyprobe plus kit) diluted 1:25 to a adjacent section. The sections were imaged again in blue (Hoechst) and green (pimonidazole and CA IX) fluorescence. […] Images were taken by Carl Zeiss Axiovert fluorescence microscope. […]

On to `CC1(C)C(/C=C/C(=C/C=C2/N(CCCS(=O)(=O)O)c3ccc4c(S(=O)(=O)O)cc(S(=O)(=O)O)cc4c3C2(C)C)c2ccc(C(=O)NCCC(=O)Nc3nnc(S(N)(=O)=O)s3)cn2)=[N+](CCCS(=O)(=O)[O-])c2ccc3c(S(=O)(=O)O)cc(S(=O)(=O)O)cc3c21` [Compound C5, 3-(2-((1E,3Z,5E)-5-(1,1-dimethyl-6,8-disulfo-3-(3-sulfopropyl)-1H-benzo[e]indol-2(3H)-ylidene)-3-(5-((3-oxo-3-((5-sulfamoyl-1,3,4-thiadiazol-2-yl)amino)propyl)carbamoyl)pyridin-2-yl)penta-1,3-dien-1-yl)-1,1-dimethyl-6,8-disulfo-1H-benzo[e]indol-3-ium-3-yl)propane-1-sulfonate], for which the “tumor tissue distribution of fluorescence signal (FIG. 7)” value is “co-localizes with both CA IX antibody and the hypoxia marker pimonidazole and is located away from well perfused areas indicated by the Hoechst stain”.
